Reference: patent US10449168B2 (The University of Toledo, priority 2015, dated 2019)
At least one compound was matched to its structure with a doubt left.

Amino acid sequences for entries named in this document (tags omitted). A change or cut given only in a name is not applied to a line headed by its entry.
UniProt P23247: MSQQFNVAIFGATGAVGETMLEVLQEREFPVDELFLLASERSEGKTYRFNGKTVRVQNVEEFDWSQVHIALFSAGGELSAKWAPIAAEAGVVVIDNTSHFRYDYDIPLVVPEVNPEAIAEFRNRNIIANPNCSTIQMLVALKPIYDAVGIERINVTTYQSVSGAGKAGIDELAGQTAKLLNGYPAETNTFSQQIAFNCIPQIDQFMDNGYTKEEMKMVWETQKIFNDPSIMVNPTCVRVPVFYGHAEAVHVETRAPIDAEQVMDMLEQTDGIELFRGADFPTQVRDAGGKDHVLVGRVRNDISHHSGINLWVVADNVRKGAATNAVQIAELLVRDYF

Biological target: T1, Vibrio cholerae aspartate semialdehyde dehydrogenase (vcASADH) (Vibrio cholerae serotype O1, UniProt P23247)
T1 construct: made in house
Format: biochemical
Settings: relative to parent or neighbouring derivative

Question: How did the “inhibition / binding affinity for vcASADH (in words)” value turn out when `O=C(O)CN(Cc1ccc(Br)cc1)Cc1ccc(C(=O)O)c(C(=O)O)c1` [Compound 20, N-(4-bromobenzyl)-N-carboxymethyl-3,4-dicarboxybenzylamine] was run?
Answer: did not show any improved affinity
